In the supplement of paper PMC10849652:
This is one part of the list.

Chains of the proteins cited; added tags and fusions are not shown. Lines headed by an entry give the natural chain unless they say otherwise; changes in a name come on top.
UniProt Q9NS69: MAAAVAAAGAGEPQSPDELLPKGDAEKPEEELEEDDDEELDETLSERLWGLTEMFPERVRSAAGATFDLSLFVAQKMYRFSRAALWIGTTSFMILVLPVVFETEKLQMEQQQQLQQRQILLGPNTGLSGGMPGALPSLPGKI
UniProt Q12815: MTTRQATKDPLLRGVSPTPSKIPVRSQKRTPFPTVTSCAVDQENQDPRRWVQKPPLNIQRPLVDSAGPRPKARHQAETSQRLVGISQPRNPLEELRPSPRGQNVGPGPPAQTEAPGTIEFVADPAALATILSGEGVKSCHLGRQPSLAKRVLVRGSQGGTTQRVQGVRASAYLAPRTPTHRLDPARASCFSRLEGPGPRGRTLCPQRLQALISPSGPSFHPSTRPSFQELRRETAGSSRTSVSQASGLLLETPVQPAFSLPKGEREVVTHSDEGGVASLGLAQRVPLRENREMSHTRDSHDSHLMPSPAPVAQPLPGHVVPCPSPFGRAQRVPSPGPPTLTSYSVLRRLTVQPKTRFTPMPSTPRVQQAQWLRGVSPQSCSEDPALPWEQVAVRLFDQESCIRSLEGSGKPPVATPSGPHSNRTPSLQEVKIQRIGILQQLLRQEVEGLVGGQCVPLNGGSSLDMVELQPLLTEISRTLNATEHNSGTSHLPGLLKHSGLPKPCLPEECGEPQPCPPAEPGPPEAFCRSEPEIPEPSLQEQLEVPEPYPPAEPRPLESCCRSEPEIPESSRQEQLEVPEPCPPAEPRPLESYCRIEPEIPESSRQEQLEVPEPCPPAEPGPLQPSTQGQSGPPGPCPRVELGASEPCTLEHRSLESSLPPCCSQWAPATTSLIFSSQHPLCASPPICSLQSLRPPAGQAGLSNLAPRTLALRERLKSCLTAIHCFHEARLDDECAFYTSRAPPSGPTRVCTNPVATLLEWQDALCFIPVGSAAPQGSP
UniProt Q9NXH9: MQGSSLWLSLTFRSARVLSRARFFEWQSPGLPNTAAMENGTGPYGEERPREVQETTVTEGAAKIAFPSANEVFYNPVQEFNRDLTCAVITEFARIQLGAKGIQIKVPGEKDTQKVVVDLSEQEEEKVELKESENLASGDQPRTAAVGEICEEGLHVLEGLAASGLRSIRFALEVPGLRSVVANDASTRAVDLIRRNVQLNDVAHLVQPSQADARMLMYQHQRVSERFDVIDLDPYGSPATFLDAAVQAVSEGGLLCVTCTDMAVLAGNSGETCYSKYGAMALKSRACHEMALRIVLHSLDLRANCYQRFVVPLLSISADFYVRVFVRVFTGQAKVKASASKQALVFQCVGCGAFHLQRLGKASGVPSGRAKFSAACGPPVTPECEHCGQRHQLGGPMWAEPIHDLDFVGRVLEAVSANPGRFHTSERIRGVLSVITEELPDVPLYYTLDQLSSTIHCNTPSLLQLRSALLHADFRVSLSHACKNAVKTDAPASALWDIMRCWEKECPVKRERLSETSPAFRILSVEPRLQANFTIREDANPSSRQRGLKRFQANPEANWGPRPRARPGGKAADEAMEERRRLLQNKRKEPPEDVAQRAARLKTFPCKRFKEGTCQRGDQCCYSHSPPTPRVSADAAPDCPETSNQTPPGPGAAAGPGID
UniProt Q15650: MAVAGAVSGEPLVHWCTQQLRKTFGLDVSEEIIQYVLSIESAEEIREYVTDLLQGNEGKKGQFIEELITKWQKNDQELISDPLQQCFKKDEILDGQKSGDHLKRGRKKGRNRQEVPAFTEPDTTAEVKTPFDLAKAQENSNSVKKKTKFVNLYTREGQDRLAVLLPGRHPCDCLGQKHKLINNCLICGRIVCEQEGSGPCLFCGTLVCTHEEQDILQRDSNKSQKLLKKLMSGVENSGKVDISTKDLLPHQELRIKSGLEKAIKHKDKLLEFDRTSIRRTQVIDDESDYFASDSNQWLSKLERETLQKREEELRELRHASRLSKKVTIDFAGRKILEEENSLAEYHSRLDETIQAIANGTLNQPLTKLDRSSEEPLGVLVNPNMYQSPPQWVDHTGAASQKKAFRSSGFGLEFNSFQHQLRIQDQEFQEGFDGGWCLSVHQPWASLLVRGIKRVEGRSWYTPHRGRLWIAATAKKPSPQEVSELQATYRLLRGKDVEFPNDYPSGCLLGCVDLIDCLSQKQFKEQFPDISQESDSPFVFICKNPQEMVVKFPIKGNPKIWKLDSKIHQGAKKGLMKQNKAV
UniProt P28908: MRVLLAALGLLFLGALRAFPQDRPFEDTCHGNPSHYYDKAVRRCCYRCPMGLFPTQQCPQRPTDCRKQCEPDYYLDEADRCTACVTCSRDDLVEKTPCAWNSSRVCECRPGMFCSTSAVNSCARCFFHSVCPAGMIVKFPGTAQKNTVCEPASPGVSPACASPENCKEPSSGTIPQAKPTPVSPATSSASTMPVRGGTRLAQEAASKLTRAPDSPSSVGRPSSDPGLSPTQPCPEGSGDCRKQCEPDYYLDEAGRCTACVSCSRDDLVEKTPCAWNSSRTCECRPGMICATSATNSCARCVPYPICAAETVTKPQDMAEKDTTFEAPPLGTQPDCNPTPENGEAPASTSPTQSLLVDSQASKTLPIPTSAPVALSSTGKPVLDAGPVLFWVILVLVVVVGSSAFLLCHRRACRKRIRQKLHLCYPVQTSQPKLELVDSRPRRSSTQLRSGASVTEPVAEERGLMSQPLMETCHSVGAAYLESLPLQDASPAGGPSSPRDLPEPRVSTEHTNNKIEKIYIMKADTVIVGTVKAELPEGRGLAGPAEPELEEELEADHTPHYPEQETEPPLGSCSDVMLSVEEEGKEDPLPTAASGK
UniProt P55327: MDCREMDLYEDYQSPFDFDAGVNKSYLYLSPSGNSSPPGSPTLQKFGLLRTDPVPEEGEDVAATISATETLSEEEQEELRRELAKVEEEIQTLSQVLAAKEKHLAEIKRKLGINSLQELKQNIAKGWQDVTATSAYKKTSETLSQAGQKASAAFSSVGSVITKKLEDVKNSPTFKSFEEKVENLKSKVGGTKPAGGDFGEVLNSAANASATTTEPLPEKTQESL
UniProt Q9H496: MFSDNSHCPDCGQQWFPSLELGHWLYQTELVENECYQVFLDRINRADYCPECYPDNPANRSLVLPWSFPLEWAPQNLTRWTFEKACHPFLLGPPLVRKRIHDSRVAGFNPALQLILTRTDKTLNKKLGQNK
UniProt O94842: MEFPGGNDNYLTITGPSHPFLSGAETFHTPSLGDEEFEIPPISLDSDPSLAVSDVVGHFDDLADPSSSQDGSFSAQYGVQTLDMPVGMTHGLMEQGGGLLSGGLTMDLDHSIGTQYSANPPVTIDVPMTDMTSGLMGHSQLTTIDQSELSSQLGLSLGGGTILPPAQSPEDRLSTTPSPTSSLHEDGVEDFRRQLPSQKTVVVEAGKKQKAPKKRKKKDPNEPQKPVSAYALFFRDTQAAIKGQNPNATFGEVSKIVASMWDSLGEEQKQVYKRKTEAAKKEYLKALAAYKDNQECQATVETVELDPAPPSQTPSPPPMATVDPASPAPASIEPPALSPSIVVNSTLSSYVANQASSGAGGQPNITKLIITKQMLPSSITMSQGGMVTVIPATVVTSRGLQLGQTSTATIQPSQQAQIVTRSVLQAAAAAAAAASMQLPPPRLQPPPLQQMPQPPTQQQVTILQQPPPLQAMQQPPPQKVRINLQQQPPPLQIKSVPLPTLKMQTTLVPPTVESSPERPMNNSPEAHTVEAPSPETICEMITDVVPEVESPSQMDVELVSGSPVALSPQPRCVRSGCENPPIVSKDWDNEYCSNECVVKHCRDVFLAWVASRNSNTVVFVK
UniProt O43715: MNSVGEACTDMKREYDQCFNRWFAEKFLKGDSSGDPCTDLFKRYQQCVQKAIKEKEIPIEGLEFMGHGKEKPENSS
UniProt Q96Q11: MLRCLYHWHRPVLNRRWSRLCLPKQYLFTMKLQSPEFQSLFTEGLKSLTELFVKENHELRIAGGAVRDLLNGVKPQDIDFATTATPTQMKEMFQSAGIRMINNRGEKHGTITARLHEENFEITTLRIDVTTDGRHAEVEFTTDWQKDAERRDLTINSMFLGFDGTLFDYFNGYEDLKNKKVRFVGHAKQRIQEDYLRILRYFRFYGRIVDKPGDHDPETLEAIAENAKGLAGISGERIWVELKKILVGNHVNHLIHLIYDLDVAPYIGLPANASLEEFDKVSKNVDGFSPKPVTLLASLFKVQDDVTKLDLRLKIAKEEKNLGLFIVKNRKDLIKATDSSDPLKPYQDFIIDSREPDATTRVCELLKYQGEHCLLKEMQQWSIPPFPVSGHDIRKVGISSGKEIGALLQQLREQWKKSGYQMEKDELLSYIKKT
UniProt Q9UL33, whole entry, looked up: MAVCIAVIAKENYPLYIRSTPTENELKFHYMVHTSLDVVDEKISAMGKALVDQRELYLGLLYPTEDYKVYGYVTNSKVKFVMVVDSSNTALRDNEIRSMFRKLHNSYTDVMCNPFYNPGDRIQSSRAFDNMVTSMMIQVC
UniProt O96008: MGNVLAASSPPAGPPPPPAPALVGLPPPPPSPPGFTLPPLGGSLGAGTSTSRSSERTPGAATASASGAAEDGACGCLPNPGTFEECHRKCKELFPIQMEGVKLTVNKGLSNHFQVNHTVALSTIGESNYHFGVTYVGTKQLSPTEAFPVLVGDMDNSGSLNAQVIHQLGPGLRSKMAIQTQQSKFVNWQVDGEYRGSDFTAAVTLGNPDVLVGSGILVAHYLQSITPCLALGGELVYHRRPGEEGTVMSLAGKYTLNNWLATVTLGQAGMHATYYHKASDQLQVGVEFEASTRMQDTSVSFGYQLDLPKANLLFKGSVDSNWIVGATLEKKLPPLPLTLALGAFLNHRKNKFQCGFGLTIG
UniProt P51580: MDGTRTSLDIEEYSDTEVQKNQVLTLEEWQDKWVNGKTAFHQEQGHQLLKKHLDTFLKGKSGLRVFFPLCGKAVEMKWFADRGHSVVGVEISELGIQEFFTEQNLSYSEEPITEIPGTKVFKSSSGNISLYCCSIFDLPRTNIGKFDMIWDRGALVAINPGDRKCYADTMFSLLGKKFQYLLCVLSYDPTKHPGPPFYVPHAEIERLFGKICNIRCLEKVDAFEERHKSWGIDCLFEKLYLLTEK
UniProt Q07912: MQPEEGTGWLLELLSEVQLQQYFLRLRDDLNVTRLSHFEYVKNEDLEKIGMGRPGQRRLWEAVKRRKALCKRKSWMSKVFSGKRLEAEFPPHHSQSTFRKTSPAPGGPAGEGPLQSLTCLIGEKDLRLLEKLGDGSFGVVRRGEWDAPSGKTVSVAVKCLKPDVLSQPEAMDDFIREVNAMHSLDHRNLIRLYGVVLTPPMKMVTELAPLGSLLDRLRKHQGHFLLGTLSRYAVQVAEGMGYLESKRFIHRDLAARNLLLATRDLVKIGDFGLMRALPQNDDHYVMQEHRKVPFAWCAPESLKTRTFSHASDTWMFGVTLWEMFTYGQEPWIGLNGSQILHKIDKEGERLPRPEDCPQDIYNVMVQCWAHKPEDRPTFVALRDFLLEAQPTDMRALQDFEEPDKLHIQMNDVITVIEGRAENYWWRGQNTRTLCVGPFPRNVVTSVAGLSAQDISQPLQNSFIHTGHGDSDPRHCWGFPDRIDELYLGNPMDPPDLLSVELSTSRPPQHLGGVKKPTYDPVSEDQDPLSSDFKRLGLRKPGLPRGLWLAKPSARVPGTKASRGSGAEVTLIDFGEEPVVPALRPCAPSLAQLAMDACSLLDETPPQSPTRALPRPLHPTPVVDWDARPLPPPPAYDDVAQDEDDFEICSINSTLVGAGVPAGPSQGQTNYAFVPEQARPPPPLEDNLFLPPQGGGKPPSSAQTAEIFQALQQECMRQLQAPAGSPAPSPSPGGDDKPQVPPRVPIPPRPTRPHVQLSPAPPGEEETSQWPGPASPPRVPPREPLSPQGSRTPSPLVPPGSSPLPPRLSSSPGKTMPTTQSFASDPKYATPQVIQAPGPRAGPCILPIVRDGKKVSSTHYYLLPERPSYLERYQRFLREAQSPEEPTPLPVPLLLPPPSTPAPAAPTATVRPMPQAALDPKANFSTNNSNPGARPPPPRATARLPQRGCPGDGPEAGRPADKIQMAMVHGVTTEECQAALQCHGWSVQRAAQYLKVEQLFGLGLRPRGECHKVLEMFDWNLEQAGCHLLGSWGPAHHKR
UniProt P09493, whole entry, looked up: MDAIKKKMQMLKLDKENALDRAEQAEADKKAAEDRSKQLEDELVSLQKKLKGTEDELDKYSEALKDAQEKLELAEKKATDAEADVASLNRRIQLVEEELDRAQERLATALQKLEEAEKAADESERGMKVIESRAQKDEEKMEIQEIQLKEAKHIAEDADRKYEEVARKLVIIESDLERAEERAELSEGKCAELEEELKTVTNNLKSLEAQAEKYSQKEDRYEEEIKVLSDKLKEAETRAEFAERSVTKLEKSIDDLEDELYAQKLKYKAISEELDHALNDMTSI
UniProt P07951, whole entry, looked up: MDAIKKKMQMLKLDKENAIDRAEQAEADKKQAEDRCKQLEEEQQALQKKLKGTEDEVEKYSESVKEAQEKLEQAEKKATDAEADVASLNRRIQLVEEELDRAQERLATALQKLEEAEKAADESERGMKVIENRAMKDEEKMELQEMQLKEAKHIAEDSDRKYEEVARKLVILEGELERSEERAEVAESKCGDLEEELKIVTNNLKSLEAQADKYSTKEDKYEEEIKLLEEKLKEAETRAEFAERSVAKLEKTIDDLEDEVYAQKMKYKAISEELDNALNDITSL

Experiments:
Assay in all cases: log2 fold change, soluble protein after heating vs DMSO (PISA); higher = thermal stabilisation; K562 cells, 10 uM, 30 min; active = over 0.2 and 3.5 SD of the protein, either way, in both replicates (recomputed)
[1] = compound: C1=CC=C(C=C1)[C@H](COC2=CC3=C(C=C2)NC(=O)N3)NC(=O)C4=CC=CN(C4=O)CC5=CC(=C(C=C5)F)F
Procedure, shortened: (§1)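 For each measurement, 10 μM compound was applied for 30 min to K562 cells at 2×10^6 cells/mL. Aliquots were heated for 3 min across 48°C-58°C, pooled, and extracted in PBS with 0.5% NP-40 at 4°C; the supernatant after 21,000xg for 90 min was soluble protein. This was quantified by TMTpro 16plex LC-MS/MS with channel sums equalised, and thermal stability was reported relative to control samples from duplicates, on a log2 fold-change scale.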

[2] = compound: CC1=C(SC2=C1C(=N[C@H](C3=NN=C(N32)C)CC(=O)N)C4=CC=C(C=C4)Cl)C
Procedure, shortened: as §1

[3] = compound: CC1=C2C(=CC=C1)N=C(N(C2=O)C3=CC=CC=C3C)CN4C=NC5=C(N=CN=C54)N
Procedure, shortened: as §1

[4] = compound: Cc1sc2c(c1C)C(c1ccc(Cl)cc1)=N[C@@H](CC(=O)OC(C)(C)C)c1nnc(C)n1-2
Procedure, shortened: as §1

[5] = compound: c1ccc([C@@H]2C[C@H]2NC2CCNCC2)cc1
Procedure, shortened: as §1

Measured: log2 fold change

TOMM5 isoform 2 (UniProt Q8N4H5)
inactive: [1] 0.034 | [2] 0.047 | [3] -0.032 | [4] -0.029 | [5] 0.005

TOMM22 (UniProt Q9NS69)
inactive: [1] -0.023 | [2] 0.054 | [3] -0.021 | [4] -0.054 | [5] 0.009

TROAP (UniProt Q12815)
inactive: [1] 0.045

TRMT1 (UniProt Q9NXH9)
inactive: [1] -0.001 | [2] 0.004 | [3] 0.007 | [4] -0.03 | [5] 0.055

TRAPPC6B (UniProt Q86SZ2)
inactive: [1] -0.007 | [2] 0.061 | [3] 0.048 | [4] -0.033 | [5] -0.013

TRIP4 (UniProt Q15650)
inactive: [1] -0.064 | [2] -0.028 | [3] 0.047 | [4] 0.088 | [5] -0.013

TRAF4 (UniProt Q9BUZ4)
inactive: [1] -0.085 | [2] -0.105 | [3] 0.03 | [4] 0.106 | [5] 0.062

TNFRSF8 (UniProt P28908)
inactive: [1] 0.012 | [2] 0.053 | [3] 0.036 | [4] -0.04 | [5] 0.021

TOR2A (UniProt Q5JU69)
inactive: [1] -0.032 | [2] 0.02 | [3] 0.104 | [4] -0.134 | [5] -0.08

TPD52 isoform 3 (UniProt P55327)
inactive: [1] -0.024

TRAPPC11 (UniProt Q7Z392)
inactive: [1] 0.004 | [2] 0.117 | [3] 0.077 | [4] -0.031 | [5] 0.027

TOR1AIP2 (UniProt Q9H496)
inactive: [1] 0.03

TP53RK (UniProt Q96S44)
inactive: [1] 0.023 | [2] -0.018 | [3] -0.006 | [4] -0.03 | [5] 0.017

TRIM25 (UniProt Q14258)
inactive: [1] 0.066 | [2] -0.142 | [3] -0.029 | [4] 0.088 | [5] -0.035

TOMM40L (UniProt Q969M1)
inactive: [1] -0.013 | [2] 0.023 | [3] -0.013 | [4] -0.017 | [5] 0.05

TOX4 (UniProt O94842)
inactive: [1] 0.071 | [2] -0.116 | [3] -0.08 | [4] 0.124 | [5] 0.098

TRMT2A (UniProt Q8IZ69)
inactive: [1] -0.008 | [2] -0.042 | [3] -0.026 | [4] 0.1 | [5] 0.058

TRIAP1 (UniProt O43715)
inactive: [1] 0.07 | [2] 0.154 | [3] 0.061 | [4] -0.05 | [5] 0.01

TRNT1 (UniProt Q96Q11)
inactive: [1] -0.03 | [2] 0.052 | [3] 0.082 | [4] -0.019 | [5] 0.021

TRMT61A (UniProt Q96FX7)
inactive: [1] 0.157 | [2] -0.033 | [3] -0.051 | [4] 0.141 | [5] -0.049

TPP1 (UniProt O14773)
inactive: [1] 0.019 | [2] 0.048 | [3] -0.02 | [4] 0.036 | [5] -0.067

TRRAP (UniProt Q9Y4A5)
inactive: [1] 0.002 | [2] 0.029 | [3] 0.006 | [4] -0.036 | [5] 0.02

TOE1 (UniProt Q96GM8)
inactive: [1] 0.049 | [2] -0.036 | [3] -0.095 | [4] 0.065 | [5] 0.014

TRAPPC2L (UniProt Q9UL33)
inactive: [1] -0.014 | [2] -0.044 | [3] -0.058 | [4] -0.063 | [5] 0.038

TOMM20 (UniProt Q15388)
inactive: [1] 0.021 | [2] 0.025 | [3] 0.028 | [4] 0.006 | [5] 0.008

TOMM40 (UniProt O96008)
inactive: [1] -0.008 | [2] 0.01 | [3] -0.032 | [4] -0.022 | [5] 0.011

TPMT (UniProt P51580)
inactive: [1] -0.025 | [2] 0.043 | [3] 0.011 | [4] -0.02 | [5] -0.015

TPP2 (UniProt Q5VZU9)
inactive: [1] 0.093 | [2] -0.136 | [3] -0.003 | [4] -0.579 | [5] -0.021

TSC22D2 (UniProt O75157)
inactive: [1] 0.015 | [2] 0.018 | [3] -0.032 | [4] -0.01 | [5] 0.071

TOM1L1 (UniProt O75674)
inactive: [1] -0.019 | [2] 0.045 | [3] 0.034 | [4] 0.009 | [5] 0.023

TNK2 isoform 3 (UniProt Q07912)
inactive: [1] -0.033

TOR3A (UniProt Q9H497)
inactive: [1] -0.022 | [2] -0.023 | [3] 0.038 | [4] -0.02 | [5] 0.001

TOMM34 (UniProt Q15785)
inactive: [1] -0.14 | [2] 0.05 | [3] 0.112 | [4] -0.006 | [5] -0.063

TREML2 (UniProt Q5T2D2)
inactive: [1] -0.043

TNFRSF1B (UniProt P20333)
inactive: [1] 0.029 | [2] 0.013 | [3] -0.225 | [4] 0.041 | [5] 0.015

TRIM33 (UniProt Q9UPN9)
inactive: [1] -0.103 | [2] 0.135 | [3] 0.173 | [4] 0.142 | [5] 0.111

TRIP13 (UniProt Q15645)
inactive: [1] -0.015 | [2] 0.008 | [3] 0.011 | [4] -0.009 | [5] -0.022

TOLLIP (UniProt Q9H0E2)
inactive: [1] 0.003 | [2] 0.101 | [3] 0.059 | [4] -0.049 | [5] -0.045

TSC22D1 (UniProt Q15714)
inactive: [1] 0.011 | [2] 0.033 | [3] 0.016 | [4] -0.011 | [5] 0.099

TPI1 (UniProt P60174)
inactive: [1] 0.001 | [2] 0.026 | [3] 0.027 | [4] -0.003 | [5] 0.008

TPM1 isoform 4 (UniProt P09493)
inactive: [1] -0.011 | [2] 0.011 | [3] 0.015 | [4] -0.01 | [5] 0.008

TSEN2 (UniProt Q8NCE0)
inactive: [1] -0.05 | [2] 0 | [3] 0.044 | [4] -0.027 | [5] 0.03

TRMT112 (UniProt Q9UI30)
inactive: [1] -0.037 | [2] 0.037 | [3] 0.074 | [4] -0.052 | [5] 0.004

TRIM11 (UniProt Q96F44)
inactive: [1] -0.096 | [2] -0.039 | [3] 0.051 | [4] 0.03 | [5] 0.004

TPM1 (UniProt H7BYY1)
inactive: [1] 0 | [2] 0.023 | [3] -0.109 | [4] 0.008 | [5] 0.058

TPM2 (UniProt P07951)
inactive: [1] -0.041 | [2] -0.117 | [3] -0.195 | [4] -0.017 | [5] 0.014

TPR (UniProt P12270)
inactive: [1] 0.053 | [2] 0.014 | [3] 0.001 | [4] 0.083 | [5] 0.043

TOR1AIP1 isoform 3 (UniProt Q5JTV8)
inactive: [1] 0.037 | [2] 0.013 | [3] 0.014 | [4] -0.015 | [5] 0.015

TNIK isoform 3 (UniProt Q9UKE5)
inactive: [1] -0.124 | [2] 0.015 | [3] 0.042 | [4] -0.021 | [5] -0.02

TOP2B (UniProt Q02880)
inactive: [1] 0.128 | [2] -0.266 | [3] -0.416 | [4] 0.202 | [5] 0.013

TNPO1 (UniProt Q92973)
inactive: [1] -0.017 | [2] 0.008 | [3] -0.012 | [4] -0.009 | [5] 0.018

TP53I3 (UniProt Q53FA7)
inactive: [1] 0.031 | [2] 0 | [3] -0.05 | [4] 0.017 | [5] 0.053

Three entries drawn at random from those above, as already listed:
TNIK isoform 3 (UniProt Q9UKE5)
inactive: [1] -0.124 | [2] 0.015 | [3] 0.042 | [4] -0.021 | [5] -0.02

TNPO1 (UniProt Q92973)
inactive: [1] -0.017 | [2] 0.008 | [3] -0.012 | [4] -0.009 | [5] 0.018

TPR (UniProt P12270)
inactive: [1] 0.053 | [2] 0.014 | [3] 0.001 | [4] 0.083 | [5] 0.043

(next part)

TRIM4 (UniProt Q9C037)
inactive: [1] -0.049 | [2] -0.014 | [3] 0.254 | [4] -0.04 | [5] -0.038

TRUB1 (UniProt Q8WWH5)
inactive: [1] -0.014 | [2] 0.026 | [3] -0.016 | [4] -0.048 | [5] 0.009

TRPV2 (UniProt Q9Y5S1)
inactive: [1] -0.026 | [2] 0.053 | [3] 0.062 | [4] -0.048 | [5] 0.02

TPST2 (UniProt O60704)
inactive: [1] 0.187 | [2] 0.038 | [3] 0.024 | [4] -0.036 | [5] 0.013
